In all, about 1,400 compounds went through this assay and about 50 (4%) were called active.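 The calls were made as follows: active = fitted curve reaches 30% CPE protection at or below the top valid dose, with every test run called active; inconclusive = test runs disagree, some active and some not; inactive = every test run inactive, including effects in the wrong direction.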 The list shows a part of the results. Results with a measured potency or affinity are listed apart.
experiment: antiviral rescue of DENV2-infected BHK-21 cells – cell-based, ATP luminescence, cherry-pick, dose response (AID 687031); conditions: BHK-21 DENV2 CPE protection, 5 d; at 19.5 µM (top of the series) unless noted;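 also: 0% = infected DMSO wells and 100% = uninfected cell wells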

CPE protection (higher = active), inactive:
C=Cc1ccc(Cn2c(C)c(C(=O)NCc3cccc(C(F)(F)F)c3)sc2=O)cc1 -21.6%
C=CCOc1ccccc1CNn1c(C)n[nH]c1=S -9.34%
Cc1cc(OCc2cc(C(=O)N(C)C(C)c3ccccn3)no2)cc(C)c1Cl (configuration not stated) -3.99%
Cc1c(C)c2c(OCC(=O)N3CCC(O)CC3)cc3c(c2oc1=O)CCC(C)(C)O3 11%
CC(C)c1ccc(S(=O)(=O)N2CCN(C(=O)n3ccnc3)CC2)cc1 3.32%
CCN(CC)CCCNc1nc(C)cc(COC)c1C#N 8.73%
COCCNC(=O)C1CC2Cn3c(nc4cc(C)c(C)cc43)C2N1C (configuration not stated) -5.68%
CCNC(=O)C[C@H]1CC[C@H]2[C@@H](COC[C@H](O)CN2Cc2ccc(Cl)c(Cl)c2)O1 10.1%
CCOc1ccc(C(=O)Nc2ccc(CN3CCOCC3)cc2)cc1Br 5.95%
COc1ccc(CN2CCC[C@]3(N[C@H](c4ccc(OC)cc4)[C@@H]4C(=O)N(C)C(=O)[C@@H]43)C2=O)cc1 14.6%
C[C@H]1CN([C@@H](C)CO)C(=O)c2cccc(NS(=O)(=O)c3ccccc3)c2O[C@@H]1CN(C)Cc1ccc(Cl)c(Cl)c1 -23.7%
CCCN(C)C1CN(Cc2cn(Cc3ccc(C)cc3)nn2)S(=O)(=O)C1 (configuration not stated) 6.39%
C[C@@H]1CN([C@H](C)CO)C(=O)c2cccc(NC(=O)Nc3ccc4c(c3)OCO4)c2O[C@H]1CN(C)C(=O)Nc1ccccc1 -7.43%
COc1ccc(NC(=O)CN2CCc3ccccc3C2)cc1S(=O)(=O)N1CCOCC1 -7.67%
COc1ccc(S(=O)(=O)N2CCCC2C(=O)NCC(=O)Nc2cccc(Cl)c2C)cc1 (configuration not stated) 4.58%
COc1ccc2c(C)c(CCC(=O)NC3CC3)c(=O)oc2c1C -2.98%
COC(=O)c1ccc2nc(-c3ccc(C#N)cc3)c(Cc3cccc(F)c3)n2c1 -9.85%
COc1ccc(NC(=O)CN(C)CCOc2ccc(Cl)cc2)cc1OC 22.6%
O=C(NCC[C@H]1CC[C@H](NS(=O)(=O)c2ccc(Oc3ccccc3)cc2)[C@@H](CO)O1)C1CC1 10.4%
CN(C[C@H](Cc1ccccc1)N(C[C@@H](CC1CCCCC1)N(CCc1ccccc1)N=O)N=O)N=O -3.85%
COc1cc(NC(C)=O)c2ncccc2c1Br -3.36%
CC(C)(C)OC(=O)N1CCC[C@@H]1C(=O)N1CCC[C@@H]1C(=O)NCc1ccccc1Cl -5.38%
COC(=O)c1ccc2nc(-c3ccc(F)cc3)c(Cc3ccccc3OC)n2c1 3.1%
COc1cccc(C2(c3cccc(OC)c3)CC2C(=O)Nc2ccc(F)cc2)c1 (configuration not stated) 11.7%
CCOC(=O)N1CCC(NS(=O)(=O)c2ccc(C#N)cc2)CC1 -10.4%
CC1(Cc2cccc(F)c2)C(=O)Nc2ccc(-c3cccnc3)cc21 (configuration not stated) -0.308%
COc1cccc(C(=O)N2CCOCC2)c1 18.6%
COCCCN1C(=O)C(CC(=O)NC2CCCCC2)CC(C(=O)N(C(C)C)C(C)C)=C1C (configuration not stated) -11.1%
CCOC(=O)C1(Cc2ccccc2C)CCCN(C(=O)c2cc(C3CC3)[nH]n2)C1 (configuration not stated) -8.84%
CCC(=O)Nc1cccc(-c2cc3ccccc3oc2=O)c1 -32.2%
CC(NC(=O)CN1CCCC1)c1ccccc1 (configuration not stated) -5.17%
C[C@@H]1CN([C@H](C)CO)C(=O)c2cc(NC(=O)NC3CCCCC3)ccc2O[C@@H](C)CCCCO[C@H]1CN(C)C(=O)Nc1ccc2c(c1)OCO2 0.224%
CCCN(CC(=O)Nc1ccccc1C)C(=O)C1CCN(S(=O)(=O)c2ccc(C)c(C)c2)CC1 6.3%
O=C1c2ccccc2/C(=C\c2ccc(Br)nc2)N1c1ccccc1 -9.39%
C[C@@H]1CN([C@@H](C)CO)C(=O)c2cc(NS(=O)(=O)c3ccc(Cl)cc3)ccc2O[C@@H](C)CCCCO[C@H]1CN(C)CC1CC1 6.24%
COc1cccc(NC(=O)CCN2C(=O)C3CC=CCC3C2=O)c1 (configuration not stated) 11.4%
CC(=O)NC(c1cc(Cl)c2cccnc2c1O)C(C)C (configuration not stated) -28.1%
COc1ccccc1NC(=O)Nc1nc(CC(=O)N2CCN(c3ccc(F)cc3)CC2)cs1 -14.2%
O=C1CN(C(=O)COC(=O)c2c(F)cccc2Cl)c2ccccc2N1 -6.7%
COC(=O)[C@@H]1[C@H](CCc2ccccc2)NC(=O)N(Cc2ccccc2)[C@@H]1C -7.83%
CS(=O)(=O)c1cccc(-c2nnc(NC(=O)c3ccc(S(=O)(=O)N4CCCC4)cc3)o2)c1 2.36%
Cc1ccc(S(=O)(=O)Nc2ccc3c(c2)CC(=O)N([C@H](C)CO)C[C@H](C)[C@@H](CN(C)C(=O)Nc2cccc4ccccc24)O3)cc1 -6.07%
Cc1ccc(-c2nc(N3CCN(C)CC3)c3ccccc3n2)cc1 12.5%
O=C1NC[C@@H](CCCCN2CCN(Cc3ccccc3)C(=O)C2=O)N(CCC2CCCCC2)C1=O 5.75%
CCCCNC(=O)O[C@H]1C[C@@H]2CCN3C(=O)CCC[C@H]([C@H]1Cc1ccccc1)[C@H]23 -0.558%
Cc1cc(C)c(OCCCNC2CCCC2)c(Br)c1 -6.71%
COc1ccc(C2=Nn3c(nnc3-c3ccccc3Cl)SC2)cc1OCC1CC1 -13.5%
Cc1noc(C)c1NC(=O)Nc1cccc2c1O[C@@H](CN(C)S(=O)(=O)c1ccc(F)cc1)[C@@H](C)CN([C@@H](C)CO)C2=O -5.47%
COc1ccc(OC)c(-c2nnc3n2N=C(c2ccc(OC)c(OC)c2)CS3)c1 -40.5%
Cn1cccc1C(=O)OCC(=O)NC(=O)c1ccc(Cl)cc1 -8.69%
C[C@@H]1CN([C@@H](C)CO)C(=O)Cc2cc(NC(=O)CCCCCC(=O)Nc3ccccc3N)ccc2O[C@@H]1CN(C)Cc1ccc(C(F)(F)F)cc1 -23.6% [at 21 µM]
C[C@@H]1CN([C@H](C)CO)C(=O)Cc2cc(NC(=O)Cc3ccccc3)ccc2O[C@@H]1CN(C)Cc1ccc(Cl)c(Cl)c1 -0.832%
COc1cccc(NC(=O)CN(C)C(=O)Cc2ccc3c(c2)OCCO3)c1 4.3%
Cc1noc(C)c1S(=O)(=O)Nc1ccc2c(c1)C(=O)N([C@@H](C)CO)C[C@@H](C)[C@H](CN(C)S(=O)(=O)c1ccccc1)OCCCC[C@@H](C)O2 -19.5%
Cc1nc(C)c(CC(=O)N/N=C/c2ccc(O)cc2)c(=O)[nH]1 -17%
CCC(N=c1cc(-c2ccc(OC)c(OC)c2)oc2ccc(C)cc12)C(=O)O (configuration not stated) 7.66%
CC(C)NC(=O)Nc1ccc2c(c1)C(=O)N([C@@H](C)CO)C[C@H](C)[C@H](CN(C)C(=O)Nc1ccc3c(c1)OCO3)O2 3.83%
CCc1nc(SCc2ccccc2C)n[nH]1 -4.43%
COc1cccc(OC)c1-c1cnc(NC(C)=O)cn1 -15.4% [at 10 µM]
COc1ccc2c3c([nH]c2c1)[C@H](CO)N(C(=O)c1ccccc1)CC31CN(S(=O)(=O)c2cccs2)C1 12.8%
Nc1ccc2oc(-c3ccccc3Cl)cc(=O)c2c1O 0.572%
O=C(NC(C(=O)N1CCCC1C(=O)NC1CCCC1)c1ccccc1)c1cccs1 (configuration not stated) -11.5%
C[C@H](CO)N1C[C@H](C)[C@H](CN(C)C(=O)Nc2ccc(C(F)(F)F)cc2)OCCCC[C@H](C)Oc2ccc(NS(=O)(=O)c3ccc(F)cc3)cc2C1=O 7.18%
CN(C)c1ccc(CC(=O)N2CCCC(c3cc(C(=O)Nc4ccc(F)c(Cl)c4)no3)C2)cc1 (configuration not stated) -9.94%
CCOC(=O)C1CCN(C(=O)C2CC(=O)N(c3ccc4c(c3)OCCO4)C2)CC1 (configuration not stated) 31.2%
COCC(=O)Nc1ccc2c(c1)C(=O)N(C)C[C@@H](OC)[C@H](C)CN(C(C)=O)[C@H](C)CO2 20.4%
COc1cc(OC)cc(-c2c(-c3cccs3)c3cc(-c4ccn[nH]4)ccc3n2C)c1 21.2%
CCc1cccc(OCCN2CCCC2)c1 -8.33%
O=S(=O)(c1cnc(Cl)c(Cl)c1)N1CCc2ccccc21 -9.93%
CCOC(=O)[C@@H]1[C@H]2COc3ccc(Br)cc3[C@@H]2N2C(=O)N(c3ccc(C)cc3)C(=O)[C@]12C -5.7%
Cc1ccc(S(=O)(=O)N2CCCCC2)cc1NC(=O)c1cc(=O)[nH]c2ccccc12 -6.88%
O=C(C[C@@H]1CC[C@H]2[C@@H](COC[C@@H](O)CN2C(=O)c2ccncc2)O1)NCc1ccc(-c2ccccc2)cc1 -12.4%
C[C@@H]1CN([C@H](C)CO)C(=O)c2cc(-c3ccccc3)cnc2O[C@@H]1CN(C)C(=O)c1ccccc1F 3.63%
COc1cc(OC)cc(C(=O)Nc2ccc3nc4n(c(=O)c3c2)CCCC4)c1 -7.66%
Cc1cc(Cl)c2oc(C(=O)N(C)CCCCN3CCOCC3)c(C)c2c1 16.9%
O=C(C[C@H]1C=C[C@H](NS(=O)(=O)c2ccccc2)[C@H](CO)O1)N1CCC(Cc2ccccc2)CC1 -16.4%
COc1ccc(-c2ccc3c(c2)[C@@H]2[C@@H](CCN2C(=O)C2CCOCC2)[C@@H](CO)N3C)cc1 -18%

6 records drawn at random from those above, as already listed:
CPE protection (higher = active), inactive:
Cc1noc(C)c1S(=O)(=O)Nc1ccc2c(c1)C(=O)N([C@@H](C)CO)C[C@@H](C)[C@H](CN(C)S(=O)(=O)c1ccccc1)OCCCC[C@@H](C)O2 -19.5%
COc1ccc(S(=O)(=O)N2CCCC2C(=O)NCC(=O)Nc2cccc(Cl)c2C)cc1 (configuration not stated) 4.58%
O=S(=O)(c1cnc(Cl)c(Cl)c1)N1CCc2ccccc21 -9.93%
C[C@@H]1CN([C@H](C)CO)C(=O)c2cc(NC(=O)NC3CCCCC3)ccc2O[C@@H](C)CCCCO[C@H]1CN(C)C(=O)Nc1ccc2c(c1)OCO2 0.224%
Nc1ccc2oc(-c3ccccc3Cl)cc(=O)c2c1O 0.572%
CCC(=O)Nc1cccc(-c2cc3ccccc3oc2=O)c1 -32.2%

From PubChem BioAssay AID687031 (Broad Institute, 2013)
